Reference: PubChem BioAssay AID504467 (National Center for Advancing Translational Sciences (NCATS), 2011)
The campaign covered roughly 330,000 compounds. About 7,700 (2.3%) were called active. The shares of active, inactive and inconclusive entries below differ from those in the screen. Calls come from the whole dose curve; as a rule, active = well fitted inhibition curve with a large enough effect; inconclusive = small, poorly fitted or top-dose-only effect, or effect the other way; inactive = flat fitted curve, though single readings scatter. Potencies beside an inconclusive call are fits to weak or partial responses and may not hold up.

Assay: qHTS screen for small molecules that inhibit ELG1-dependent DNA repair in human embryonic kidney (HEK293T) cells expressing luciferase-tagged ELG1; note: nearly all actives have a fitted effect of over 55% in size
Conditions: HEK293T ELG1-luciferase reporter, luminescence, 16 h, DNA damage induced by 5-fluorouridine; activity change, negative = inhibition: at 46.1 µM (top of the series)
Method in brief: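 5-Fluorouridine DNA damage + compound/DMSO, 2,000 cells/well, 16 h, 37 °C/5% CO2. ONE-Glo, 30 min RT, luminescence. Readout = decrease in reporter signal.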
% is set by controls: 0 for no effect and ±100 for the full control effect; potency is the fitted concentration of half-maximal effect.

SMILES | activity change, negative = inhibition | Potency
C[C@@H]1CN([C@H](C)CO)C(=O)Cc2cc(NS(=O)(=O)c3cn(C)cn3)ccc2O[C@H]1CN(C)S(=O)(=O)c1ccc(Cl)cc1 | inactive: 3.45% | 
CC(C)N(C(=O)[C@H]1C[C@H](CC(=O)NCCN2CCOCC2)C(=O)N2CCc3c([nH]c4cc(CCC(=O)N(C)C)ccc34)[C@]12C)C(C)C |  | inconclusive: 23.1 µM [activator, single point]
CCOc1ccc2[nH]c(=O)c(C(c3nnnn3CC3CCCO3)N3CCc4ccccc4C3)cc2c1 (centres undefined) | inactive: -29.9% | 
O=C(O)C1CCCCC1C(=O)NC(c1ccccc1)c1ccccc1 (centres undefined) |  | inconclusive: 20.6 µM [activator, partial curve, poor fit]
Cc1ccc(S(=O)(=O)N2CCN(C(=O)COC(=O)CSc3ccccc3)CC2)c(C)c1 | inactive: 0.657% | 
O=C(Nc1ccc(N2CCN(c3ncccc3C(F)(F)F)CC2)nc1)c1cccs1 |  | active: 20.6 µM
CC#CCN1c2ccccc2[C@]23C[C@@H](C(=O)OC)N(C(=O)c4cc(C)oc4C)C2=NC(C(=O)OC)=C(C(=O)OC)[C@H]13 |  | inconclusive: 20.6 µM [inhibitor, partial curve]
O=[N+]([O-])c1cc(S(=O)(=O)N2CCOCC2)ccc1N1CCCC1 | inactive: -16% | 
COC(=O)C1=C(C)N(C)C(C)=C(C(=O)OC)C1c1ccsc1 |  | inconclusive: 18.4 µM [activator, single point]
COc1cc(C(=O)Nc2cccc(S(=O)(=O)NCc3ccco3)c2)cc(OC)c1OC |  | inconclusive: 29.1 µM [inhibitor, single point]
COc1ccc(-c2cc(C(=O)N3CCCCC3)no2)cc1OC |  | inconclusive: 14.6 µM [activator, partial curve]
CC(=O)c1ccc(OCc2cc(C(=O)NC(C)CCn3cccn3)no2)cc1 (centres undefined) |  | inconclusive: 18.3 µM [activator, partial curve]
COCc1c(C(=O)Nc2ccc(Cl)cc2F)oc2ccccc12 |  | inconclusive: 14.6 µM [activator, partial curve]
COc1ccc2cc3c(N)nn(C(=O)Cc4ccccc4OC)c3nc2c1 |  | inconclusive: 4.61 µM [inhibitor, partial curve, poor fit]
O=C(N/N=C/c1ccc(OC(=O)c2cccs2)cc1)c1ccc(F)cc1 |  | inconclusive: 29.1 µM [activator, single point]
CNC(=O)COC(=O)/C=C/c1cn(-c2ccccc2)nc1-c1ccc(C)o1 | inactive: 10% | 
CCCc1cc(=O)oc2c(C)c(OCC(=O)c3ccc(N4CCCC4)cc3)ccc12 | inactive: 5.62% | 
CCOC(=O)c1ccc(S(=O)(=O)N2CCN(C/C=C/c3ccccc3)CC2)cc1 |  | inconclusive: 3.66 µM [inhibitor, full curve]
CC(=O)Nc1ccc(-c2cc(C(=O)O)c3ccc(C)cc3n2)cc1 |  | inconclusive: 13 µM [activator, partial curve]
CCCSc1nnc(Nc2ccccc2C)s1 |  | inconclusive: 11.2 µM [activator, partial curve]
C(=N\N1CCN(c2ccccc2)CC1)/c1ccccc1 |  | inconclusive: 13 µM [activator, partial curve]
S=c1[nH]nc(-c2cccnc2)n1/N=C/C=C/c1ccco1 | inactive: -7.49% | 
Cc1ccc(C)c(NC(=O)COC(=O)c2cccc3c2C(=O)c2ccccc2C3=O)c1 |  | active: 23.1 µM

SMILES | activity change, negative = inhibition | Potency
COC(=O)c1ccc(NC(=O)Nc2ccccc2C)cc1 | inactive: -14.5% | 
COc1ccc(NC(=O)c2nc(C)c(C3(C)CC(c4ccccc4)=NO3)s2)cc1 (centres undefined) |  | inconclusive: 5.8 µM [inhibitor, single point]
Cc1ccc(-c2nc3ncccc3o2)cc1N |  | inconclusive: 5.8 µM [activator, full curve]
CCCCOc1ccc(-c2nnc(-c3ccco3)o2)cc1 |  | inconclusive: 5.8 µM [activator, partial curve]
CCOC(=O)C1CN(S(C)(=O)=O)c2cc(CC(=O)OC)ccc2O1 (centres undefined) | inactive: -10.9% | 
O=C(NC(=S)Nc1cccc(Cl)c1N1CCOCC1)c1cccs1 |  | inconclusive: 23.1 µM [inhibitor, single point]
CCOc1ccc(CNC(=O)C2CCN(S(=O)(=O)c3ccc4c(c3)CCCC(=O)N4)CC2)cc1 |  | inconclusive: 18.3 µM [inhibitor, partial curve, poor fit]
COc1cccc(CN(C)C(=O)Cc2c[nH]c3ccccc23)c1OC | inactive: -26.9% | 
CCN1CCCC1CNC(=O)CSc1cc(=O)n(CC)c2ccccc12 (centres undefined) |  | inconclusive: 29.1 µM [activator, single point]
CC(=O)Nc1ccc(NC(=O)c2cc(-n3cnnc3)ccc2Cl)cc1 | inactive: -14% | 
Cc1nc2ncnn2c(N2CCCC(C(=O)Nc3ccccc3Br)C2)c1C (centres undefined) |  | inconclusive: 8.2 µM [inhibitor, partial curve, poor fit]
CCOc1ccc(C(C(=O)NCC2CCCO2)N(Cc2cccs2)C(=O)c2snc(C(N)=O)c2N)cc1 (centres undefined) |  | active: 4.61 µM
O=C(Cc1ccccc1F)Nc1ccc(S(=O)(=O)N2CCCCC2)cc1 |  | inconclusive: 29.1 µM [inhibitor, single point]
COc1ccc(C#Cc2c(-c3ccccc3)n(C)c3ccccc23)cc1 | inactive: 11.8% | 
CC(C)Sc1nc(SCC(=O)NCc2ccco2)c2c3c(sc2n1)COC(C)(C)C3 |  | active: 2.31 µM
COc1ccc(N2CC(O)=C(c3n(C)c4ccccc4[n+]3C)C2=N)cc1 | inactive: 6.56% | 
O=C1c2ccccc2-c2ncnc3c(N4CCOCC4)cc(N4CCOCC4)c1c23 |  | inconclusive: 23.1 µM [inhibitor, partial curve]
CSc1nsc(SC)c1NC(=O)OCCc1ccccn1 | inactive: -0.0627% | 
O=C(NCc1ccccc1)C(c1ccc(O)cc1)N(C(=O)c1cnccn1)c1ccccc1 (centres undefined) |  | inconclusive: 16.4 µM [inhibitor, partial curve]
CCc1ccc(C2=NN(S(C)(=O)=O)C(c3cccs3)C2)cc1 (centres undefined) |  | inconclusive: 1.84 µM [activator, full curve]
COCCN(C(=S)Nc1cccc(C)c1)C(C)c1cccs1 (centres undefined) | inactive: 4.92% | 
COc1cccc2sc(NC(=O)c3ccc(S(=O)(=O)N4CCOCC4)cc3)nc12 |  | inconclusive: 7.31 µM [inhibitor, single point]
CNC(=S)N(CCCN(C)C)Cc1cc2cc3c(cc2[nH]c1=O)OCCO3 |  | inconclusive: 35.5 µM [inhibitor, single point]

SMILES | activity change, negative = inhibition | Potency
CC(C)[C@H](NC(=O)[C@H]1N2C(=O)c3ccccc3C2SC1(C)C)C(=O)NCc1ccco1 (some centres undefined) | inactive: -9.74% | 
CCN([C@H](CO)C(C)C)S(=O)(=O)c1ccccc1Br | inactive: 5.25% | 
Cc1cccc(C)c1Nc1c(-c2ccc(N3CCOCC3)cc2)nc2ncccn12 |  | inconclusive: 8.2 µM [inhibitor, partial curve, poor fit]
CC(=O)c1ccc(NS(=O)(=O)c2ccc(C(C)(C)C)cc2)cc1 | inactive: -9.13% | 
C=CCc1ccccc1Oc1cc(OC)nc(N)n1 | inactive: 12.4% | 
c1ccc(CSCc2ccccc2)cc1 |  | inconclusive: 25.9 µM [activator, partial curve, poor fit]
COc1ccc(NC(=O)COc2nsnc2N2CCCCC2)cc1 |  | inconclusive: 29.1 µM [inhibitor, single point]
CC(OC(=O)CCCc1nc2ccccc2s1)C(N)=O (centres undefined) |  | inconclusive: 14.6 µM [activator, partial curve, poor fit]
CC(=O)c1cnc(Nc2cccc(Cl)c2Cl)s1 |  | inconclusive: 29.1 µM [activator, single point]
Cc1cccc(NC(=O)c2nc[nH]c2C(=O)N[C@@H](CC(C)C)C(=O)OC(C)(C)C)c1 |  | inconclusive: 29.1 µM [inhibitor, single point]
O=C(C1=C[C@@H](c2csc3ccccc23)C[C@@H](OCCCCO)O1)N1CCN(Cc2ccc3c(c2)OCO3)CC1 |  | inconclusive: 23.1 µM [inhibitor, single point]
CN(C)C(=S)Nc1cccc(F)c1 | inactive: 1.72% | 
CCCN(C(=O)COC(=O)COc1c(C)cccc1C)c1c(N)n(Cc2ccccc2)c(=O)[nH]c1=O | inactive: 10% | 
COc1ccc(-c2noc(-c3cccc(Cl)c3)n2)cc1OC |  | inconclusive: 18.4 µM [activator, partial curve]
CN(CCO)c1ncnc2c1sc1nc(N3CCOCC3)c3c(c12)CCC3 |  | inconclusive: 25.9 µM [inhibitor, partial curve, poor fit]
O=C(NCc1ccon1)C1CCC(=O)N(CCc2cccc(F)c2)C1 (centres undefined) | inactive: -0.252% | 
Nc1c2c(=O)oc(-c3ccccc3)cc2nn1-c1ccccc1 |  | inconclusive: 2.82 µM [activator, partial curve, poor fit]
C=CCSc1nnc2c(n1)OC(c1ccco1)Nc1ccccc1-2 (centres undefined) |  | inconclusive: 29.1 µM [activator, single point]
CSc1ccccc1OCc1cc(C(=O)N2CCCC(C)C2)no1 (centres undefined) |  | inconclusive: 9.2 µM [activator, partial curve]
COc1cc(OC)cc(C(=O)NC(C)c2ccc(Br)cc2)c1 (centres undefined) |  | inconclusive: 13 µM [inhibitor, partial curve, poor fit]
COCC(C)n1c(SCC(=O)Nc2sccc2C(N)=O)nc2ccccc2c1=O (centres undefined) |  | inconclusive: 29.1 µM [inhibitor, single point]
Cc1nn(-c2ccccc2)c2c1C1(C(=O)Nc3ccccc31)N1C(=N2)Sc2ccccc21 (centres undefined) |  | inconclusive: 10 µM [inhibitor, single point]
CC1CCCCN1C(=O)COC(=O)c1cc([N+](=O)[O-])ccc1N (centres undefined) |  | inconclusive: 11.6 µM [activator, partial curve, poor fit]

Shown as tab-separated lines: two of the compounds above
SMILES	activity change, negative = inhibition	Potency
Nc1c2c(=O)oc(-c3ccccc3)cc2nn1-c1ccccc1		inconclusive: 2.82 µM [activator, partial curve, poor fit]
C=CCSc1nnc2c(n1)OC(c1ccco1)Nc1ccccc1-2 (centres undefined)		inconclusive: 29.1 µM [activator, single point]
